Values of other authors as cited in US7588892B2, “Reagent sets and gene signatures for renal tubule injury” (Entelos, Inc., priority 2004, dated 2009).

Test system: renal tubules
Conditions: rats, daily dose, route and vehicle of Table 2, day 5/7; absence of nephrotoxicity asserted from PDR and published literature; no histological injury on day 5/7; cited from earlier work

CC(C)c1c(C(=O)Nc2ccccc2)c(-c2ccccc2)c(-c2ccc(F)cc2)n1CC[C@@H](O)C[C@@H](O)CC(=O)O [ATORVASTATIN]
Class (nephrotoxic / non-nephrotoxic training label): Non-nephrotoxic
